This is one part of the list. Small differences around the control level are noise.

Protein sequences, listed by entry. Tags and fused reporters are not part of them. Lines headed by an entry give the natural chain unless they say otherwise; changes in a name come on top.
UniProt Q66K74: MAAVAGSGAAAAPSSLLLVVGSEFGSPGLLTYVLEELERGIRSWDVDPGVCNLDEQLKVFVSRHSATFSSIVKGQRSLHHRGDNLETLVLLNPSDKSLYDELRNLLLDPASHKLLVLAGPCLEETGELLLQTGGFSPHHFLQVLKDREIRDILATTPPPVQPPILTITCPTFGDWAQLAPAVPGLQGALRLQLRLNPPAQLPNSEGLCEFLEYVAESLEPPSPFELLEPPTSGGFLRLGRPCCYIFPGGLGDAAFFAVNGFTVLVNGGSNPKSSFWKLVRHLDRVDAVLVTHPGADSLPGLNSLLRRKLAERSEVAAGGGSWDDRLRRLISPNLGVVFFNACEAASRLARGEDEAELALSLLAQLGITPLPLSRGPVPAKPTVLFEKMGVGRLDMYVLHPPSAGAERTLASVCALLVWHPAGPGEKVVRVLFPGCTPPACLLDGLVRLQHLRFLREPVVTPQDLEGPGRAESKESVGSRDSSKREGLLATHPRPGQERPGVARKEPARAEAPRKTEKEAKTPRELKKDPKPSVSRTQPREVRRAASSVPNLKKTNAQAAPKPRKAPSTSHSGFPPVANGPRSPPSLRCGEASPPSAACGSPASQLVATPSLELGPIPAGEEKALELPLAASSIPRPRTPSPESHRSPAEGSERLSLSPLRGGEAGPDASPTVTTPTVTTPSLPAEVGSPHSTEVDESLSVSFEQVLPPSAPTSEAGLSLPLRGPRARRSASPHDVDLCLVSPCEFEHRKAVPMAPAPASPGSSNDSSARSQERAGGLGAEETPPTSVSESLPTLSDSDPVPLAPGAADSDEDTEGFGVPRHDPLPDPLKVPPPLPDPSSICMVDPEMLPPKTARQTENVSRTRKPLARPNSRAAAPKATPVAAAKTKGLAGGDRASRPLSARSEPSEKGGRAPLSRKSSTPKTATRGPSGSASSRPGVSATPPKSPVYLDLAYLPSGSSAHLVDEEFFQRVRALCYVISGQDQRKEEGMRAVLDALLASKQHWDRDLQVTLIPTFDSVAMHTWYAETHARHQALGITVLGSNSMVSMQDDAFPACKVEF
UniProt Q6NZY4: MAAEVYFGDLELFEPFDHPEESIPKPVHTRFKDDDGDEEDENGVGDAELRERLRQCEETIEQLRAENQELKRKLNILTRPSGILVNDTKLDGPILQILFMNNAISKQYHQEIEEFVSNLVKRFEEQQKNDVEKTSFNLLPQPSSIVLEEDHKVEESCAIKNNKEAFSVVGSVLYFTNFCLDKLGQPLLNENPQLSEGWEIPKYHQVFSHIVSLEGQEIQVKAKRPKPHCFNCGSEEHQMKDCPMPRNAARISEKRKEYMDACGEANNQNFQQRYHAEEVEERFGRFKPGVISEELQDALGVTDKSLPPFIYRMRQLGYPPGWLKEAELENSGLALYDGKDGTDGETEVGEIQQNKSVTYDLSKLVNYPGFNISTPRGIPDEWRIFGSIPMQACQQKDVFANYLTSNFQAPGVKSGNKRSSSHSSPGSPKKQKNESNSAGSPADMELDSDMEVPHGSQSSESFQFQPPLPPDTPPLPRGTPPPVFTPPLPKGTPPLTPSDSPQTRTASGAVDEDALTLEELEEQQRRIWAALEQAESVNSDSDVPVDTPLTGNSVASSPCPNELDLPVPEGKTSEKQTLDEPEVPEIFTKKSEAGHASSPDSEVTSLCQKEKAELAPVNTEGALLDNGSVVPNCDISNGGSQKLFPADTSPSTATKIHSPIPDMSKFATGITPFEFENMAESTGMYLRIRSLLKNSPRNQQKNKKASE
UniProt Q6PFW1: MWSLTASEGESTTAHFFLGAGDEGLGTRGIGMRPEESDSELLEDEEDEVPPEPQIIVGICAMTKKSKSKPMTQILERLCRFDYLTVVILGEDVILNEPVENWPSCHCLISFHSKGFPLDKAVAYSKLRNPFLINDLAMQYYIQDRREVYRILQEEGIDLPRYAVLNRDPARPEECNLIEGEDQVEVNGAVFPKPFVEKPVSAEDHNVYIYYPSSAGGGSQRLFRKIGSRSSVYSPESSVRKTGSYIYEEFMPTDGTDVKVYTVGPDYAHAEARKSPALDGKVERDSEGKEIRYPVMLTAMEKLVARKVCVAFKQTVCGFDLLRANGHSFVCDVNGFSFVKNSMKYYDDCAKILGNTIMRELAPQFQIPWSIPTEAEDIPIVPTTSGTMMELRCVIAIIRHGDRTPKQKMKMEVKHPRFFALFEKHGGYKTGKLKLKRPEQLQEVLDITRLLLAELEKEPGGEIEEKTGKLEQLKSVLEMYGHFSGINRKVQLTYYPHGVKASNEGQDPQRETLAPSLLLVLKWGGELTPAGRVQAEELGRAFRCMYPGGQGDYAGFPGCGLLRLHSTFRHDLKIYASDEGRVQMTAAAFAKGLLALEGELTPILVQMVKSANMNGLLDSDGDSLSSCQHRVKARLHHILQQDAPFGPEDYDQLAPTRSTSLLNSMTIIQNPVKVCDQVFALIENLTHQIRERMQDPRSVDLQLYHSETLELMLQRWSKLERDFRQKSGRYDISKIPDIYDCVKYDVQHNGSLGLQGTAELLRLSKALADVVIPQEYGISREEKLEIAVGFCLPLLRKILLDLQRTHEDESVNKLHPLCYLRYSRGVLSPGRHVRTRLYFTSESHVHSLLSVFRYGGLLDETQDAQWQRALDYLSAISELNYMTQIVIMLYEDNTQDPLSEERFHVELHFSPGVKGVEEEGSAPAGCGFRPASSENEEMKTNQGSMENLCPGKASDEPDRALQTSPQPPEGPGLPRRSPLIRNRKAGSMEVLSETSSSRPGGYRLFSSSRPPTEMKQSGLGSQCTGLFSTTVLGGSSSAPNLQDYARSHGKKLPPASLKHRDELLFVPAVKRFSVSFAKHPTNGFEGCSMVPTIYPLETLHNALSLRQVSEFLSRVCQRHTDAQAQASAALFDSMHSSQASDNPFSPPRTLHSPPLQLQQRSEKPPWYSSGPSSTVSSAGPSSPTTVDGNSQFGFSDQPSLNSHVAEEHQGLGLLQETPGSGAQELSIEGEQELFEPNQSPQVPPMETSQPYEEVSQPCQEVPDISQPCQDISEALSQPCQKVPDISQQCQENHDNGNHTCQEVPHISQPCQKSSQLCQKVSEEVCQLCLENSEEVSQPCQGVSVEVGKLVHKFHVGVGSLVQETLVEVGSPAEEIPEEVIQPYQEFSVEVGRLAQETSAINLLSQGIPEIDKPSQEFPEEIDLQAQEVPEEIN
UniProt Q6GQQ9: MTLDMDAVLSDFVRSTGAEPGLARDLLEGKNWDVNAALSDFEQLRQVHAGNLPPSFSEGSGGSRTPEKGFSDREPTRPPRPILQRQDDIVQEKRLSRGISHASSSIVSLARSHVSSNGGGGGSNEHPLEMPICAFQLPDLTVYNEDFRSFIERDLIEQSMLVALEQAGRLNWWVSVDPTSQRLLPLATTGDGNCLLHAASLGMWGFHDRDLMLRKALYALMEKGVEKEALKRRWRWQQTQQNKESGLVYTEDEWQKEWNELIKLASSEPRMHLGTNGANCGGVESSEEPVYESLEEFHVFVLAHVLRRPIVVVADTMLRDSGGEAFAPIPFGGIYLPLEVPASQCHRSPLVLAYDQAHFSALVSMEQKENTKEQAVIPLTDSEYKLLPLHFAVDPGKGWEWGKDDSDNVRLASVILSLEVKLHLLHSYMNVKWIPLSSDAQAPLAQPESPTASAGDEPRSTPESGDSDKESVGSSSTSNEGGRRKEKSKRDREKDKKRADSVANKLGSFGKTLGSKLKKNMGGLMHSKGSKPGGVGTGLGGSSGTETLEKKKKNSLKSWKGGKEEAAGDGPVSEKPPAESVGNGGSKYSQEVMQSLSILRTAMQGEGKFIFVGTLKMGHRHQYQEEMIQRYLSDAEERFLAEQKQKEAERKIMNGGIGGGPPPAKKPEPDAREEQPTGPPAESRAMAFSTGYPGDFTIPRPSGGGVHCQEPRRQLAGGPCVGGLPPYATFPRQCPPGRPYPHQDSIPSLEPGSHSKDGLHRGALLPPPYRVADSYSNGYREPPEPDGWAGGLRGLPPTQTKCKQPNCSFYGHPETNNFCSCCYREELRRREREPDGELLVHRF
UniProt Q6IBS0: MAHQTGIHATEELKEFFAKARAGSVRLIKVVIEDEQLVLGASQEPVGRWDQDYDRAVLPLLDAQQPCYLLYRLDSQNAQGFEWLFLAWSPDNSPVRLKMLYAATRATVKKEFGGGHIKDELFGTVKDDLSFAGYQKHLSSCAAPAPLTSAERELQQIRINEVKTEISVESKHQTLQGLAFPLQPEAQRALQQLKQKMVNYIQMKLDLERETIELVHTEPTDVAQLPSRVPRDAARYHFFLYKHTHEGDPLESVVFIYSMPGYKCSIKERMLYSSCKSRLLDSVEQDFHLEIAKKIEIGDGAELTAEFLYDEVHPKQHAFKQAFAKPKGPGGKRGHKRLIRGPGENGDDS
UniProt Q6PK81: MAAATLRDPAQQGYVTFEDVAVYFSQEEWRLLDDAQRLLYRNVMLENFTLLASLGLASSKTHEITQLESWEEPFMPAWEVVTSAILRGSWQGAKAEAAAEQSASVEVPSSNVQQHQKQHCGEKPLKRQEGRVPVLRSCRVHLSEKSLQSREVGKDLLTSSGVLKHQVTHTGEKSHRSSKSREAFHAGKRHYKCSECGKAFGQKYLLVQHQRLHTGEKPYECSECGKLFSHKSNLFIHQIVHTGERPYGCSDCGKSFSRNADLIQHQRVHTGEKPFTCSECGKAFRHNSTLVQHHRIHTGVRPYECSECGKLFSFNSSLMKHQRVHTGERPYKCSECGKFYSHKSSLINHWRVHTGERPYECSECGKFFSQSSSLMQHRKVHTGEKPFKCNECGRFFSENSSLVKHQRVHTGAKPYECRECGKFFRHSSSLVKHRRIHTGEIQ
UniProt Q6NXR4: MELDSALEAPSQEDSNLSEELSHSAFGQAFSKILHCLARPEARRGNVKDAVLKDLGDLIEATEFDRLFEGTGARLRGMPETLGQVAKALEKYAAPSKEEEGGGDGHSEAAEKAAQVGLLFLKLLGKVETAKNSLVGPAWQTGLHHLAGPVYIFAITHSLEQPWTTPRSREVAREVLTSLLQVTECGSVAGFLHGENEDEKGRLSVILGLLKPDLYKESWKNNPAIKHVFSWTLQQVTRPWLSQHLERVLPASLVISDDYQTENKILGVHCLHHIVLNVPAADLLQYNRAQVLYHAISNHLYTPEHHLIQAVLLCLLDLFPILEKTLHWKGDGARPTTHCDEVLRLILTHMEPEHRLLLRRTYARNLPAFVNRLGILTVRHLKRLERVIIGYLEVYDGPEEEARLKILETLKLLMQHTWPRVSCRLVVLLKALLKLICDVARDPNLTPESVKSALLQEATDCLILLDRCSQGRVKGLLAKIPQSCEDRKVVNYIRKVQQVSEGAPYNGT
UniProt Q6PH85: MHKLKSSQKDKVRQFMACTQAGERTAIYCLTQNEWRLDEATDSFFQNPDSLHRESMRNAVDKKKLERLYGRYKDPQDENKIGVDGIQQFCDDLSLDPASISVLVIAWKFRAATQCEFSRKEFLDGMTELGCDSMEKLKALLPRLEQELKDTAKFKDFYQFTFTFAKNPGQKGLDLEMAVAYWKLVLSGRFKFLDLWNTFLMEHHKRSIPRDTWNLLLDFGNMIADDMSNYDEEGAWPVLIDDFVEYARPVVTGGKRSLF
UniProt Q5VTR2, whole entry: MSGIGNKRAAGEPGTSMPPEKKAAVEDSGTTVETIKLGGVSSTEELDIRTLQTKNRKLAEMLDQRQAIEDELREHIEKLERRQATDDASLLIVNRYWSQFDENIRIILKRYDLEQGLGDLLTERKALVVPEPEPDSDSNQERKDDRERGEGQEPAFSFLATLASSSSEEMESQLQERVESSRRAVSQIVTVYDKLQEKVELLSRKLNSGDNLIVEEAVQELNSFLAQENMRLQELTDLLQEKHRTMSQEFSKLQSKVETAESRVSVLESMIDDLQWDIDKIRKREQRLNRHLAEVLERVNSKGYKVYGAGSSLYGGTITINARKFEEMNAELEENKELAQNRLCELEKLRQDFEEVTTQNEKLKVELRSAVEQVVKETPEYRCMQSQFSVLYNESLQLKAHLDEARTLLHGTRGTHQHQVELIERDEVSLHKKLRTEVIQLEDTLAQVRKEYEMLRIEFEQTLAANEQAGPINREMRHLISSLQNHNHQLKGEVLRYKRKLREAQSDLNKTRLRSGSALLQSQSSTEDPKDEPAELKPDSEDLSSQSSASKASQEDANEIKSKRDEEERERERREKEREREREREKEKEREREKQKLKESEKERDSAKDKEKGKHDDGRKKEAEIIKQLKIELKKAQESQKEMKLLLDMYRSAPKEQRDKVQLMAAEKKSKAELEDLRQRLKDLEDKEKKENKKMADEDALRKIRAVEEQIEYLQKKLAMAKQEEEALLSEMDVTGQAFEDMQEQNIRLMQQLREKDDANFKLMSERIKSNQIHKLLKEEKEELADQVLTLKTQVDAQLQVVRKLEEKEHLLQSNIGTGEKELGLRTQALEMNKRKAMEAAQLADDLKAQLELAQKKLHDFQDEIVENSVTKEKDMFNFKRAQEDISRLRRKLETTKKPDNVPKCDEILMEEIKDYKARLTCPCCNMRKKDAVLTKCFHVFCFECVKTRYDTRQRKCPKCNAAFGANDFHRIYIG

Compound in this assay: Cc1nc(Nc2ncc(C(=O)Nc3c(C)cccc3Cl)s2)cc(N2CCN(CCO)CC2)n1 [dasatinib]
Kind of assay: log2 fold change of tryptic peptide abundance, ligand vs vehicle (limited proteolysis) (log2 ratio); higher = more trypsin-susceptible (destabilized). Particulars: ligand concentration: 5 uM; sample: K562 cleared lysate.
On to “MAP1S (peptide sequence: SLYDELR, peptide start residue: 97) (UniProt Q66K74)”, for which the log2 fold change is -0.432.

For “UniProt Q6NUM6 (peptide sequence: AMITPALR, peptide start residue: 354)”, the log2 fold change was determined as 0.0947.

Take “UniProt Q5VWN6 (peptide sequence: ETPLPVSLPSDK, peptide start residue: 1144)”: the log2 fold change is -0.454.

In the case of “PPRC1 (peptide sequence: VHVGSGDHDYCVR, peptide start residue: 1289) (UniProt Q5VV67)”, the log2 fold change was -0.466.

In the case of “THOC7 (peptide sequence: LLIDGDGAGDDR, peptide start residue: 14) (UniProt Q6I9Y2)”, the log2 fold change turned out to be 0.535.

Regarding “UniProt Q6GMV3 (peptide sequence: VVLEAPDETTLK, peptide start residue: 81)”, the log2 fold change stood at 0.415.

Regarding “ZCCHC8 (peptide sequence: RFEEQQKNDVEK, peptide start residue: 122) (UniProt Q6NZY4)”, the log2 fold change was -0.559.

Take “RPL7L1 (peptide sequence: EMGTPGYR, peptide start residue: 236) (UniProt Q6DKI1)”: the log2 fold change came out at 0.144.

Take “MED27 (peptide sequence: TLEAFHDTCRQ, peptide start residue: 301) (UniProt Q6P2C8)”: the log2 fold change was -0.62.

Regarding “LRRC8E (peptide sequence: LWHNQIAYVPEHVR, peptide start residue: 637) (UniProt Q6NSJ5)”, the log2 fold change was -0.238.

As to “UniProt Q6PFW1 (peptide sequence: SKPMTQILER, peptide start residue: 68)”, the log2 fold change amounted to 0.317.

As for “OTUD7B (peptide sequence: LHLLHSYMNVK, peptide start residue: 422) (UniProt Q6GQQ9)”, the log2 fold change is -0.249.

On to “MRPL54 (peptide sequence: TLEELDPESR, peptide start residue: 106) (UniProt Q6P161)”, for which the log2 fold change worked out at 0.0443.

For the target “UniProt Q6AHZ1 (peptide sequence: AEEGPNASSGFMK, peptide start residue: 404)”, the log2 fold change stood at 0.185.

As to “LMBRD2 (peptide sequence: ESNFSDVNTNR, peptide start residue: 622) (UniProt Q68DH5)”, the log2 fold change is -0.0103.

Regarding “MZT2B (peptide sequence: GSAALGGALALAER, peptide start residue: 111) (UniProt Q6NZ67)”, the log2 fold change was -0.14.

For “TWF2 (peptide sequence: AHQTGIHATEELK, peptide start residue: 2) (UniProt Q6IBS0)”, the log2 fold change was -0.858.

As to “TMEM205 (peptide sequence: GLGGEVPGSHQGPDPYR, peptide start residue: 125) (UniProt Q6UW68)”, the log2 fold change was 0.218.

For “UniProt Q68CZ6 (peptide sequence: LNHLLTDILADVK, peptide start residue: 542)”, the log2 fold change was -0.211.

Turning to “ARHGAP11A (peptide sequence: SSFSQQSTCVVTNLSKPRPMR, peptide start residue: 761) (UniProt Q6P4F7)”, the log2 fold change is -0.455.

With “UniProt Q6PK81 (peptide sequence: LHTGEKPYECSECGK, peptide start residue: 212)”, the log2 fold change was -0.111.

Regarding “UniProt Q5VYS8 (peptide sequence: NPIYSQPAWMNDSHK, peptide start residue: 81)”, the log2 fold change is 0.387.

Consider “UniProt Q6NXR4 (peptide sequence: LLGKVETAK, peptide start residue: 123)”, for which the log2 fold change is -0.33.

On to “ELP2 (peptide sequence: VVVTNLNGHTAR, peptide start residue: 49) (UniProt Q6IA86)”, for which the log2 fold change was -0.625.

Turning to “ZNF691 (peptide sequence: EHGQESLSDELQETHPK, peptide start residue: 70) (UniProt Q5VV52)”, the log2 fold change was found to be 0.433.

As for “RPL22L1 (peptide sequence: TGNLGNVVHIER, peptide start residue: 48) (UniProt Q6P5R6)”, the log2 fold change is 0.179.

As to “DNAJC24 (peptide sequence: LILMYHPDK, peptide start residue: 34) (UniProt Q6P3W2)”, the log2 fold change was 0.38.

As to “UniProt Q6UW63 (peptide sequence: HDENLYGPIVK, peptide start residue: 342)”, the log2 fold change is -0.0403.

Consider “UniProt Q6PH85 (peptide sequence: LDEATDSFFQNPDSLHR, peptide start residue: 37)”, for which the log2 fold change is -0.172.

In the case of “ARHGAP17 (peptide sequence: WAEKPAFGTPLEEHLKR, peptide start residue: 244) (UniProt Q68EM7)”, the log2 fold change is -0.663.

As for “TAF2 (peptide sequence: IAALEAVVDYTKVDR, peptide start residue: 888) (UniProt Q6P1X5)”, the log2 fold change is -0.313.

Consider “RNF20 (peptide sequence: IKSNQIHK, peptide start residue: 768) (UniProt Q5VTR2)”, for which the log2 fold change is 0.221.

On to “UniProt Q5VXD3 (peptide sequence: NDVLTGLQLK, peptide start residue: 88)”, for which the log2 fold change turned out to be 0.121.

Take “CENPP (peptide sequence: ALELDKNR, peptide start residue: 246) (UniProt Q6IPU0)”: the log2 fold change turned out to be 0.206.

Consider “DENND1B (peptide sequence: GGALFNTAMTK, peptide start residue: 429) (UniProt Q6P3S1)”, for which the log2 fold change was -0.531.

As to “CASC4 (peptide sequence: FFDENESPVDPQHGSK, peptide start residue: 360) (UniProt Q6P4E1)”, the log2 fold change is 0.0716.

As for “GFI1B (peptide sequence: AHTYHQPR, peptide start residue: 12) (UniProt Q5VTD9)”, the log2 fold change turned out to be 0.134.

Take “AFTPH (peptide sequence: ERIQLEEIECAVLNDR, peptide start residue: 241) (UniProt Q6ULP2)”: the log2 fold change is -1.08.

Source of the values: the supplement of paper PMC12819154, “High-throughput peptide-centric local stability assay extends protein–ligand identification to membrane proteins, tissues and bacteria” (Nature Structural & Molecular Biology, 2025).
